Laboratory results: publication doi:10.1101/2021.06.06.447270
Like-named read-outs stand apart in the source and are kept apart here. No constants are given. Whether binding was seen depends on the method and setting. In cells and extracts the contact can be indirect. Some binding calls cover weakened binding; strength is not graded here.

Protein sequences, listed by entry. Tags and fused reporters are not part of them. Lines headed by an entry give the natural chain unless they say otherwise; changes in a name come on top.
UniProt Q08857: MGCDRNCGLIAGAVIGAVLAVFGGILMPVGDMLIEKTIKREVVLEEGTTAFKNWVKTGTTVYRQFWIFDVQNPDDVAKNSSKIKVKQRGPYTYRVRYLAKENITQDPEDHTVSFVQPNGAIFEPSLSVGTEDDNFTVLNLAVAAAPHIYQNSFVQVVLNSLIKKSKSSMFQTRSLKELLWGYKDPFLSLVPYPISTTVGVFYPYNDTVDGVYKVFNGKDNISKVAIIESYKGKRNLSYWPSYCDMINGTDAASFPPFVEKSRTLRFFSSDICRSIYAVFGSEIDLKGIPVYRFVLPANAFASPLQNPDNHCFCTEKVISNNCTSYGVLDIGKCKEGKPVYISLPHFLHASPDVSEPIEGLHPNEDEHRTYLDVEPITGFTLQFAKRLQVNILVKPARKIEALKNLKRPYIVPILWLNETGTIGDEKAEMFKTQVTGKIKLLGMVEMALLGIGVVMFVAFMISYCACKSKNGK
UniProt P25911: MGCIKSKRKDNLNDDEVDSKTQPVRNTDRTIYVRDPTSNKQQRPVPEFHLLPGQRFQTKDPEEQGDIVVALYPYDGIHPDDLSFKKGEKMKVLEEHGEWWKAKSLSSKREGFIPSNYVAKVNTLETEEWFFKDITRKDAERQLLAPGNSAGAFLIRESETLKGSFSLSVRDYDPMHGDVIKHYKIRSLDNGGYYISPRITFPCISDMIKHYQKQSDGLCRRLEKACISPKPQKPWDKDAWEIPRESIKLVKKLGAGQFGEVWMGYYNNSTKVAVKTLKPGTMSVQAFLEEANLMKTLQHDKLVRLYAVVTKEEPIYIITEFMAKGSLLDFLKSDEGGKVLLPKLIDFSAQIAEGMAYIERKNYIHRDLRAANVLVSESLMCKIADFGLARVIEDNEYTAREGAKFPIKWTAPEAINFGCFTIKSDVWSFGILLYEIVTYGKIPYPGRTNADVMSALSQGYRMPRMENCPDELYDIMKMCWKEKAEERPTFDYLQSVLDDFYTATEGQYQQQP
UniProt P39688: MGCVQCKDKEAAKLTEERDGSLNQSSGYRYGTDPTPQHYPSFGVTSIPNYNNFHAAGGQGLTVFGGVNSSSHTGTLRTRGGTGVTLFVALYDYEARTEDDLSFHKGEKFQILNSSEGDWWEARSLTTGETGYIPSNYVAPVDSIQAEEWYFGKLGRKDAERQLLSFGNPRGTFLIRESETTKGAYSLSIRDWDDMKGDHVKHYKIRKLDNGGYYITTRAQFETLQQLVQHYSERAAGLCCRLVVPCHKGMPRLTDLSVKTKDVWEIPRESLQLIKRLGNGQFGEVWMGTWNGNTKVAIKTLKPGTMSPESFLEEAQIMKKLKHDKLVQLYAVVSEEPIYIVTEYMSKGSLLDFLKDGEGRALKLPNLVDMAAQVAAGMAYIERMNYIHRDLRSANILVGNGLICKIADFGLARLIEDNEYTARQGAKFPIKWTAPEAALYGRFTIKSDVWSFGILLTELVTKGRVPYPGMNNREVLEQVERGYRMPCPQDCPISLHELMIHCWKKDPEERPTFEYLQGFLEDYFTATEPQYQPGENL
UniProt P41241: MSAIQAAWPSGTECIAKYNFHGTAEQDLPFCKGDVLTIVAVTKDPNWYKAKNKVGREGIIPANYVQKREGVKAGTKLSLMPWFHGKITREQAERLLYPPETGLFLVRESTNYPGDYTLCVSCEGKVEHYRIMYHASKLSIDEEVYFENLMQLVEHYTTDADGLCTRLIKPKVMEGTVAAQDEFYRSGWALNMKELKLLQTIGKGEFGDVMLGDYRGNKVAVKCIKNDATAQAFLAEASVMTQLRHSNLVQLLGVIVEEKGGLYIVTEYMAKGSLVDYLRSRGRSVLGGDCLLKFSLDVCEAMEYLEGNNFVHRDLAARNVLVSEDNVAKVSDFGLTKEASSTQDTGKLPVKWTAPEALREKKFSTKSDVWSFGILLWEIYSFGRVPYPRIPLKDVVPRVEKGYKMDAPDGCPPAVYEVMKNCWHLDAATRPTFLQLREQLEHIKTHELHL

Columns and labels:
Test in all cases: co-IP
[1] = target: scavenger receptor CD36 (mouse (endogenous in J774A.1)) (UniProt Q08857)
[2] = target: scavenger receptor CD36 (mouse (endogenous in J774A.1)) (UniProt Q08857); remark: listed apart in the source
[3] = target: Src family kinase Lyn (mouse (endogenous in J774A.1)) (UniProt P25911)
[4] = target: Src family kinase Lyn (mouse (endogenous in J774A.1)) (UniProt P25911); remark: listed apart in the source

Q: For “Src family kinase Lyn (from UniProt P25911 1-512) (enzyme)”, which binding [1] is on record?
A: binds weakly

Q: What about the binding [2] of the same substance?
A: binds

Q: How did the binding [3] turn out when “scavenger receptor CD36 (from UniProt Q08857 1-472)” was run?
A: binds

Q: What about the binding [4] of the same substance?
A: binds weakly

Q: “Fyn kinase (from UniProt P39688 1-537) (enzyme)” was tested. Which binding [2] did it give?
A: binds weakly

Q: “C-terminal src kinase (from UniProt P41241 1-450) (enzyme)” was tested. Which binding [2] did it give?
A: binds weakly
